This is one part of the list.
molecular target: OsWRKY34 (Oryza sativa, UniProt Q0JBA9 1-250); test: protein-binding microarray (RPBM); PBS, 2% BSA, 51.3 ng/ul salmon testes DNA, 50 uM zinc acetate, 200 nM TF, 25 C, 1 h; high values mean tight binding; details: protein: recombinant; tags: N-terminal polyhistidine and DsRed monomer fusion (pET32a); label: CyDye5-dUTP incorporated in the synthesized complementary strand; 3' TTTTT single-stranded linker to array surface; dsDNA, one strand shown
Method in brief: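 Binding signal is defined as the fluorescence intensity of each feature in arbitrary units, read on an Axon 4000B scanner. Transcription factors with N-terminal polyhistidine and DsRed fusions came from E. coli BL21-CodonPlus and were purified on Ni–NTA. They were incubated at 200 nM for 1 h at 25 °C on a custom Agilent array that had been made double-stranded with Cy5-dUTP, with 50 µM zinc acetate present, and the array was washed.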

Sequences of proteins named here, by UniProt entry; tags and fusion partners are left off.
UniProt Q0JBA9, entry or part of it: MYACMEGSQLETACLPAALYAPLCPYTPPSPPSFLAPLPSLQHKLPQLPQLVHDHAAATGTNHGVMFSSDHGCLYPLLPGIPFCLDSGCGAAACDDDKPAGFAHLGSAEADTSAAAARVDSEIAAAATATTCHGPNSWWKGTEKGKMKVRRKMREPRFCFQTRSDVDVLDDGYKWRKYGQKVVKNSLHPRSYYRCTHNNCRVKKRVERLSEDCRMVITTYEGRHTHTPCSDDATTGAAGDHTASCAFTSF

Row | Sequence | binding signal
1 | AGCTGTTGACTTTGTTAGGGCCATCAATTGGGTCAATTTCCGGAGTCACCTAGTGCAG | 11300 fluorescence intensity (a.u.)
2 | TAAGTCTTGGCTGGTTGGTCTTGGTCTTGTGGTGCCTTTTCGGAGTCACCTAGTGCAG | 8530 fluorescence intensity (a.u.)
3 | ATCCGCGCGCGTGTGGCGCGCTGGGTGGGTGAGGCGCCGACGGAGTCACCTAGTGCAG | 8350 fluorescence intensity (a.u.)
4 | CCGGAGAGGCGGTGGTGTTTGGATCGGGAGGGGAGAGATGCGGAGTCACCTAGTGCAG | 11500 fluorescence intensity (a.u.)
5 | GTTGGGTTGGGTCGAGTTGGAGTGGGCCTTCTTATCTTGACGGAGTCACCTAGTGCAG | 15400 fluorescence intensity (a.u.)
6 | TCTATTTTTTTTATTTTTTAATTCCTAATTTTAGTTATTCCGGAGTCACCTAGTGCAG | 8750 fluorescence intensity (a.u.)
7 | GTTTTCTGTGTTATTGGCCAAAGTTGTATTATGGAGACACCGGAGTCACCTAGTGCAG | 10900 fluorescence intensity (a.u.)
8 | CTTGCATTCATATTGCACTACTATAGTACTATAAATTTTCCGGAGTCACCTAGTGCAG | 8880 fluorescence intensity (a.u.)
9 | TGACTTTTAGTCAACGCCATACGAAAACAGGCTAATTCCTCGGAGTCACCTAGTGCAG | 9080 fluorescence intensity (a.u.)
10 | ATTCCAGTAAGTCTCCATTCCCTTCCATCATCAACAATTACGGAGTCACCTAGTGCAG | 8240 fluorescence intensity (a.u.)
11 | TGGTCTGGTACTCTCTGGTGGTGGTGGTGGTGGTCGCCGTCGGAGTCACCTAGTGCAG | 14700 fluorescence intensity (a.u.)
12 | TGCGTTCTGGTTCGTCCACCCTGTGCAAGCTTGTGTCATGCGGAGTCACCTAGTGCAG | 8660 fluorescence intensity (a.u.)
13 | TTATCGCACATTCGCATATATATTTGTTATTTTTGTTACACGGAGTCACCTAGTGCAG | 8040 fluorescence intensity (a.u.)
14 | TACACTATAGATTGCTCTCGCCTTAATTAATTAATTTCTACGGAGTCACCTAGTGCAG | 9540 fluorescence intensity (a.u.)
15 | TTGCCTGTTATGTTCGTTCTGCAAGTCTCTTTTCGTATATCGGAGTCACCTAGTGCAG | 10300 fluorescence intensity (a.u.)
16 | AAAGTTTTTTGTCGTTGTTTGTTTTCCAGTATTTGCTTTTCGGAGTCACCTAGTGCAG | 18000 fluorescence intensity (a.u.)
17 | GCCTTATCCATCTACTAGTATTCTTTCTGATTTAGTTCAACGGAGTCACCTAGTGCAG | 8550 fluorescence intensity (a.u.)
18 | ACTTGATCTTGATATCTTCTTGTTCATCCATGATGTGAGACGGAGTCACCTAGTGCAG | 8360 fluorescence intensity (a.u.)
19 | CAAGCAAACAACCTCTAGCTAGGACCTCTCTTCTATGTCTCGGAGTCACCTAGTGCAG | 8210 fluorescence intensity (a.u.)
20 | CGCTTCGCTTCCTTTCTGTCGTGGTGTCCTCGACGATCCCCGGAGTCACCTAGTGCAG | 8040 fluorescence intensity (a.u.)
21 | CCACCTCCGCCGCTCTCTCCACTGCGCCGCCGGCGCCATGCGGAGTCACCTAGTGCAG | 9400 fluorescence intensity (a.u.)

A second format for part of the listing above.
Row,Sequence,binding signal
2,TAAGTCTTGGCTGGTTGGTCTTGGTCTTGTGGTGCCTTTTCGGAGTCACCTAGTGCAG,8530 fluorescence intensity (a.u.)
3,ATCCGCGCGCGTGTGGCGCGCTGGGTGGGTGAGGCGCCGACGGAGTCACCTAGTGCAG,8350 fluorescence intensity (a.u.)
4,CCGGAGAGGCGGTGGTGTTTGGATCGGGAGGGGAGAGATGCGGAGTCACCTAGTGCAG,11500 fluorescence intensity (a.u.)

Next results:

Row | Sequence | binding signal
22 | ATACGGCCGGCTTTTCCCTTGGGTGCACACATCGATCCCTCGGAGTCACCTAGTGCAG | 8960 fluorescence intensity (a.u.)
23 | CCGGTCTGACTGCTGCACGAGCAACCCGACTCGATGGATCCGGAGTCACCTAGTGCAG | 8740 fluorescence intensity (a.u.)
24 | TTCGTCTTCTCATGCTTGTACTGCCACTTACCATACCATACGGAGTCACCTAGTGCAG | 14300 fluorescence intensity (a.u.)
25 | TTGGAATCGCCTCACTCACGAACTCCTACGTACGCTACACCGGAGTCACCTAGTGCAG | 8910 fluorescence intensity (a.u.)
26 | AGTTGGTTTTGGCTGAGTTTAGTTTCAAACTTTTTCGTCACGGAGTCACCTAGTGCAG | 10600 fluorescence intensity (a.u.)
27 | GTGTGCTTTCCTGCTGCGTGTGGTGCTATTATTGCTAGTCCGGAGTCACCTAGTGCAG | 9840 fluorescence intensity (a.u.)
28 | TTAACATCAATGCAACACACATAGAGATCACAGTCACACACGGAGTCACCTAGTGCAG | 8110 fluorescence intensity (a.u.)
29 | TTTTGGATCCAAGCTGGTTGATTGATTGCTCTTCGTCTCCCGGAGTCACCTAGTGCAG | 10400 fluorescence intensity (a.u.)
30 | GTCGTCGTTCTTATTACAACTCCATTTGATAACTCCATACCGGAGTCACCTAGTGCAG | 8160 fluorescence intensity (a.u.)
31 | CGCCTGTTTCGGTTACTCTCTTTGTAATCTGTTCTCATCACGGAGTCACCTAGTGCAG | 9680 fluorescence intensity (a.u.)
32 | TCCACGCCGTCCATTCGCCATCGCCGTCGGGTATATAAACCGGAGTCACCTAGTGCAG | 9810 fluorescence intensity (a.u.)
33 | GAATTTTTTTTTATCATCTTTGACGGGCACACAAATTTTACGGAGTCACCTAGTGCAG | 8140 fluorescence intensity (a.u.)
34 | ATATTCCCTCCGTTTTGAAATGTTTGACGCCGTTGACTTTCGGAGTCACCTAGTGCAG | 17000 fluorescence intensity (a.u.)
35 | GTGGGGAGGGGAGGTGGGTCGCCGAAAGCTTGGCTGAGATCGGAGTCACCTAGTGCAG | 12400 fluorescence intensity (a.u.)
36 | GTGGGTATGGTTGACTTGACGGACGTACTACTCCATACTACGGAGTCACCTAGTGCAG | 8190 fluorescence intensity (a.u.)
37 | GTTGAGGGAGGCGTTTTACCTGGTTTTGCGGTTGAGGGATCGGAGTCACCTAGTGCAG | 8490 fluorescence intensity (a.u.)
38 | CCCTATTCTTTGGACAGTGACAATTATATGTCTATTTTTACGGAGTCACCTAGTGCAG | 8210 fluorescence intensity (a.u.)
39 | CTCCAGCGCTCCTACTCCATCTCCGGCCTCCGACTCCCAGCGGAGTCACCTAGTGCAG | 8040 fluorescence intensity (a.u.)
40 | GTGGTAGAAGCTATATTGTCACTGTGGTCGTCATTGTAGTCGGAGTCACCTAGTGCAG | 8690 fluorescence intensity (a.u.)
41 | GACACGTCACTACCTCACCCAAACGGACCCAATCCTCACCCGGAGTCACCTAGTGCAG | 9550 fluorescence intensity (a.u.)
42 | ATCCTGAGCGTCTCTTACTCTTCTCACGAGAACCCAAACGCGGAGTCACCTAGTGCAG | 8740 fluorescence intensity (a.u.)

From publication PMC7819943, “Rice protein-binding microarrays: a tool to detect cis-acting elements near promoter regions in rice”
